One assay addresses hCA XIV. The settings on record: read-out: Ki (AAZ) hCA XIV; Table 1; cited from earlier work.
The next assay addresses hCA VB. The settings on record: read-out: Ki (AAZ) hCA VB; Table 1; cited from earlier work.
Assay [1] has as its target Burkholderia pseudomallei β-CA. The settings on record: read-out: Ki (AAZ) Burkholderia pseudomallei β-CA; Table 1; cited from earlier work.
The target in a further assay is hCA VA. Conditions: read-out: Ki (AAZ) hCA VA; Table 1; cited from earlier work.
Assay [2] concerns the target T1, SauBCA (β-carbonic anhydrase from Staphylococcus aureus) (Staphylococcus aureus, UniProt A0AAJ4SIE8).
T1 sequence (A0AAJ4SIE8 1-189): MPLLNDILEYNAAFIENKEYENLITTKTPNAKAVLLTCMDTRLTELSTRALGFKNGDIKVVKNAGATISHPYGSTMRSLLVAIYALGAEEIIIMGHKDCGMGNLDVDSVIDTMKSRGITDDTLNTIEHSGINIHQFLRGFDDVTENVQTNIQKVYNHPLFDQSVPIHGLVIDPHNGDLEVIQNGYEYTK
As to the kind of experiment: Stopped-flow CO2 hydration inhibition assay, SauBCA. The settings on record: recombinant SauBCA, mean from three assays, errors ±5–10%. The assay is classed as biochemical. The protocol:
An Applied Photophysics stopped-flow instrument was used for assaying CA-catalysed CO2 hydration activity. […] Six traces of the initial 5 − 10% of the reaction were used to determine the initial velocity. The uncatalysed rates were determined in the same manner and subtracted from the total observed rates. A stock solution of inhibitor (0.1 mM) was prepared in distilled-deionized water, and dilutions of up to 0.01 nM were prepared thereafter with distilled-deionized water. Inhibitor (I) and enzyme (E) solutions were preincubated together for 15 min at RT prior to the assay to allow formation of the E − I complex. Inhibition constants were obtained by using the Cheng-Prusoff equation and nonlinear least squares methods (with PRISM 3) and are presented as the means from at least three different determinations. Kinetic constants were obtained using Lineweaver-Burke plots as reported earlier.

The structures appear in SMILES notation.

As usually defined, the Ki is the dissociation constant of the complex between target and ligand, obtained from inhibition or displacement.

With `CC(=O)Nc1nnc(S(N)(=O)=O)s1` [AAZ, acetazolamide], the Ki at hCA XIV was 0.041 µM; at hCA VB, 0.054 µM; in assay [1], 0.745 µM; at hCA VA, 0.063 µM.

For the compound `CCN[C@H]1C[C@H](C)S(=O)(=O)c2sc(S(N)(=O)=O)cc21` [DZA, dorzolamide], in assay [2], the Ki is 0.909 µM.

Values taken from paper PMC7534311, “Sulphonamide inhibition profile of Staphylococcus aureus β-carbonic anhydrase” (Journal of Enzyme Inhibition and Medicinal Chemistry, 2020).
